Screening data, single-dose tests

Data taken from ChEMBL document CHEMBL3988442, “University of Dundee, Small-Polar-MMV Screening Library” (2021).

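Growth of Mycobacterium tuberculosis over 3 days (7H9 medium with glucose and tyloxapol); the read-out is not stated. Tested at 50 µM. Higher reads as more growth inhibition (inferred: compounds with an IC50 in retests scored well above the rest). Of about 69,000 compounds tested this way, about 760 (1.1%) reached 50% or more in at least one test.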

Each number is a percent effect as filed.
The record does not define 0% and 100%; most values in the screen are far below 50% and negative numbers occur (in some assays of this library far below -100).
The compounds are a random part of those screened.
Two or more numbers in one place are separate tests of the same structure; such repeats can differ widely.

| structure | percent effect |
|---|---|
| `Cc1cccc(CNC(=O)CCc2c(C)nc3cc(O)nn3c2C)n1` | 18.79% |
| `O=C(COc1cccc2c1CCC2=O)NCc1ccccc1Cl` | 24.25% |
| `[H][C@]12CC[C@]([H])(CN(C(=O)c3ccccc3)C1)N(C(=O)CN1CCOCC1)C2` | -33.46% |
| `O=C(O)C(F)(F)F.O=C(O)C(F)(F)F.O=C1CC2(CCN(Cc3cccnc3)C2)CN1c1cncnc1` (centres undefined) | -45.74% |
| `Cc1cc(N2CCOCC2)ccc1NC(C)c1nc(C(C)C)no1` (centres undefined) | -0.7523% |
| `[H][C@@]12CCN(C(=O)C3CCOCC3)[C@]1([H])CCC(=O)N2CCOC` | 4.583% and -6.732% |
| `CCc1c(C)nc2ccccc2c1N1CCC(C(=O)NC)CC1` | 30.33% |
| `CN(C)c1ccc2c(c1)CN(C(=O)c1ccnnc1)C2c1cnco1` (centres undefined) | -3.167% and 4.967% |
| `CN(C)C(=O)C1CCC2(CCN(Cc3ccc4ccccc4n3)CC2)O1` (centres undefined) | -20.74% |
| `COc1ccccc1C1(CNCc2cccc(O)c2)CCOCC1` | 4.529% and 2.616% |
| `Cc1cc(=O)n(CC(=O)Nc2cccc(Cl)c2)nc1C` | 13.52% |
| `COCC(=O)N1CCC2(CCCN(Cc3cc(OC)ccc3F)C2)C1` (centres undefined) | 0.04733% and -4.243% |
| `Cc1cc(CN2CCCn3nc(CCC(=O)O)cc3C2)ccc1F` | -26.26% |
| `COc1c(CNC(C)C(=O)NC2CCCC2)c(C(C)C)nn1C` (centres undefined) | -31.98% |
| `CCOc1ccc(CN2CCC3(CC2)CNC(=O)C3)cn1` | 23.77% and 0.672% |
| `CN(Cc1nc(N2CCCC2)ncc1-c1ccncc1)C(=O)C(C)(C)C.Cl` | 4.619% |
| `COc1ncccc1CNC(=O)CN1CCCCCC1=O` | -12.08% |
| `Cc1cnc2n(c1=O)C(CC(=O)NCc1cccs1)CS2` (centres undefined) | 24.94% |
| `CN(C)C(=O)c1c[nH]nc1C1CCN(S(=O)(=O)c2ccc(Cl)cc2)CC1` | -13.35% |
| `CN(Cc1n[nH]c2c1CCC2)C(=O)CCc1cc2n(n1)CCCNC2` | -7.23% |
| `O=S(=O)(CC1CCCCO1)Nc1c(F)cccc1-n1cccn1` (centres undefined) | 3.504% |
| `Cc1nc(C)n(C2CCCN(C(=O)c3ccc4nccn4c3)C2)n1` (centres undefined) | -7.298% |
| `CC(C)NC(=O)N1CCCCC1c1nnc2n1CCNC2` (centres undefined) | 22.91% |
| `Cc1nnc(SCCC(=O)N(C)Cc2ccc(F)cc2Cl)[nH]1` | 15.5% |
| `CCc1nc(CN2CCOC(Cn3nc(C)cc3C)C2)no1` (centres undefined) | -15.15% |
| `Cc1cc(C)c(CNC(=O)NCCNc2cnccn2)c(=O)[nH]1` | -5.004% and 15.23% |
| `CCOc1ccc(N(C)Cc2nnc(C)o2)cc1` | -7.377% |
| `Cn1c(Cn2ncc(N3CCCC3)cc2=O)nc2ccccc21` | -16.05% and -3.497% |
| `[H][C@@]12CN(c3cc(OC)ncn3)C[C@@H](C(=O)NCCOC)[C@]1([H])CCO2` | -19.36% |
| `Cn1cc(Cl)c(CN2CCCC(Cn3cc(CO)nn3)C2)n1` (centres undefined) | -2.628% |
| `COC(=O)CCCNC(=O)Nc1ccccc1OC` | -28.7% |
| `O=C(N[C@@H]1CCC[C@@H](n2ccnc2)[C@@H]1O)c1ccc2c(c1)CCCC2` | 11.76% |
| `Cc1cc2[nH]cc(C(=O)N3CCCCC3c3ccc(F)cc3)c(=O)n2n1` (centres undefined) | -7.567% |
| `Cc1cc(NC(C)c2csc(C)n2)n2nc(C)c(C)c2n1` (centres undefined) | 8.472% |
| `COc1cc2nc3n(c(=O)c2cc1OC)CCN(C(C)=O)CC3` | -7.23% |
| `O=C(Cc1ccsc1)N1CCC(O)(CN2CCc3ccccc3C2)C1` (centres undefined) | 5.832% |
| `Cc1nc(C2CCN(CC(=O)NC3CC3)CC2)cc(N2CCOCC2)n1` | -8.276% |
| `O=C(NCc1ccoc1)Nc1cc(C(F)(F)F)c[nH]c1=O` | -8.993% |
| `O=C(NC[C@H]1O[C@H](Cc2cc(-c3ccccn3)on2)CC[C@@H]1O)C1CC1` | -11.06% and -8.127% |
| `O=C(O)C(F)(F)F.[H][C@@]12CCN(c3cccnc3)C[C@]1([H])CN(C(=O)c1ccc(F)cc1)C2` | -24.4% |
| `O=c1c2cccnc2cnn1CC(O)c1ccc(Br)cc1` (centres undefined) | -5.683% |
| `Cc1c[nH]nc1C1CN(c2ncccn2)CCO1` (centres undefined) | -34.78% |
| `Cc1ccnc(NC(=O)C(C)Cn2cncn2)c1` (centres undefined) | 16.12% |
| `COc1cncc(-n2ccnc2-c2ccc(C(=O)O)s2)c1` | -22% |
| `[H][C@@]12CCCO[C@]1([H])[C@H](NS(C)(=O)=O)CN(C(=O)c1ccoc1C)C2` | -28.26% |

Some entries from above, unchanged:

{"structure": "O=C(NCc1ccoc1)Nc1cc(C(F)(F)F)c[nH]c1=O", "percent effect": -8.993}
{"structure": "Cc1nnc(SCCC(=O)N(C)Cc2ccc(F)cc2Cl)[nH]1", "percent effect": 15.5}
{"structure": "Cc1cccc(CNC(=O)CCc2c(C)nc3cc(O)nn3c2C)n1", "percent effect": 18.79}
{"structure": "[H][C@@]12CCCO[C@]1([H])[C@H](NS(C)(=O)=O)CN(C(=O)c1ccoc1C)C2", "percent effect": -28.26}